Primary screen of a compound library

Source: ChEMBL document CHEMBL3988442, “University of Dundee, Small-Polar-MMV Screening Library” (2021).

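Phenotypic screen: M. tuberculosis growth, cholesterol and DPPC medium, 4 days; the read-out is not stated. Concentration: 500 µM. Direction is inferred from retests: higher values go with more growth inhibition. About 18,000 compounds were tested under these conditions; 5% (about 900) showed 50% or more at least once.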

Each number is a percent effect as filed. How 0% and 100% were set is not recorded. Most values in the screen are low, and negative values occur. Compounds were drawn at random from those tested, without regard to their results.

Result for CC(C)Nc1ncccc1C(=O)Nc1nncs1 was 55.95%. With CC(C)(C)OC(=O)NCCCOC1CCNCC1 the screen gave 1.494%. With CN(C)C(=O)CN1CCCC1c1ccsc1 (stereo unspecified) the screen gave -4.747%. Result for CC(=O)N1CCN(Cc2cn3cccc(C)c3n2)CC1 was 3.35%. Cc1ccc(CCCC(=O)N(C)CC(N)=O)cc1 read 28.35%. Result for CC[C@H](O)COc1ccc(C(=O)NCC(F)(F)F)cc1 was 10.88%. For CCCn1ncnc1C(C)NC(=O)c1ccc(N)nc1 (stereo unspecified) the result was -4.509%.

For Cc1cc(C)cc(C(=O)NCCCNS(C)(=O)=O)c1 the result was -50.28%. CS(=O)(=O)Cc1cccc(CN)c1 read -10.3%. CN(C)C(=O)c1c[nH]nc1C1CCCNC1 (stereo unspecified) read -5.219%. Result for CC(C)Cc1ccc(CNC(CO)CO)cc1 was 22.71%. Cc1cc(C(=O)Nc2ccc3c(c2)CCN3)n(C)n1 read -3.6%. OC1(CNCc2ccc(Br)c3cccnc23)CCOC1 (stereo unspecified) gave -3.911%. With Nc1n[nH]c(SCC(=O)N2CCc3sccc3C2)n1 the screen gave -2.73%.

With NCCCSc1ccccn1 the screen gave 3.455%. For Cc1nnnn1CC(=O)NCc1ccco1 the result was 0.8983%. CC[C@H](C)[C@H](NC(=O)c1cc(=O)c(OC)c[nH]1)C(N)=O gave 4.996%. With CN(C)C1(CNC(=O)c2ccccn2)CCCC1 the screen gave 45.54%. For CCN1CCSc2ccc(C(=O)NCCCOC)cc21 the result was -4.957%. CC(CN)C(=O)Nc1cn[nH]c1 (stereo unspecified) gave -11.81%. Result for CC(=O)N1CCCN(C(=O)C2CCN(C)C(=O)C2)CC1 (stereo unspecified) was 3.176%.

For CN1CCC(CN(C)S(=O)(=O)c2ccccc2)CC1 the result was 2.604%. COc1ccnc(NCc2ccc(CO)c(F)c2)n1 gave 20.04%. CCc1ccc(CN(C)C(=O)c2cccn2C)nc1 read 64.43%. Result for O=C(Cc1cccc(O)c1)NCCNc1ccccc1 was 12.76%. Result for Cc1ccsc1CN(C)C(=O)C(CN)c1ccccc1 (stereo unspecified) was -9.056%. For Cc1[nH]cnc1CN1CCN(C(=O)c2cccs2)CC1 the result was -7.954%. With CCN1CCN(CCOc2ccccc2CO)CC1 the screen gave 8.579%.

Cc1nn(C(C)C)c(C)c1NC(=O)N1CCC[C@H]1CO gave 6.134%. CC1(C#N)CCN(C(=O)c2ccc(O)cc2F)CC1 read -6.792%. O=C(Nc1cccc(Cl)c1)N1CCNCC1 read 12.36%. For CN(CC(N)=O)Cc1cc(=O)c2cccc(Cl)c2[nH]1 the result was -0.776%. CCN1C[C@H](NC(=O)c2cccn2C(C)C)[C@@H](OC)C1 gave 10.35%. CC(CCO)CNS(=O)(=O)c1ccccc1F (stereo unspecified) read 26.03%. With O=C(Cc1cccnc1)Nc1cc(O)cc(F)c1 the screen gave 11.43%.

Result for Cc1cc(C)c(C(=O)N2CCC(O)C2)c(=O)[nH]1 (stereo unspecified) was -13.92%. Cn1ccnc1C(O)c1ccc(F)cc1 (stereo unspecified) read -12.59%. For COCCCOc1ccc(N(C)C(N)=O)cc1 the result was 14.92%. With O=C(C1CC(c2ccc(Cl)s2)=NO1)N1CCCSCC1 (stereo unspecified) the screen gave 2.853%. Result for CS(=O)(=O)NCCNCc1cccc(-n2cccn2)c1 was 11.03%. With Cc1cc(CN)nc(N(C)C)n1 the screen gave -2.503%. Result for NC1CCC(=O)c2ccccc21 (stereo unspecified) was 16.49%.

Result for CC(C)CC(=O)NCc1cccnc1N1CCOCC1 was -11.98%. With COC(CO)Cc1ccccc1 (stereo unspecified) the screen gave -1.966%. With Cc1cc(NC(=O)c2ccc(S(C)(=O)=O)cc2)no1 the screen gave -5.549%. For CCO[C@H]1CN(Cc2cccc(F)c2OC)C[C@@H]1O the result was 10.06%. Cc1cncc(C(=O)Nc2sc(C)cc2C(N)=O)c1 gave -11.3%. Result for Cc1ccsc1C(=O)NCc1ccnc(N(C)C)c1 was 34.4%. For N#Cc1ccc(N2CCN(c3ncccn3)CC2)nc1 the result was 0.3303%.

Result for Cc1noc(C)c1CC(=O)NCC1CCOC1 (stereo unspecified) was 1.972%. For CCS(=O)(=O)Cc1cc(=O)n(C)c(=O)n1C the result was -13.36%. With CC(=O)N1CCC(CNC(C)Cn2cccn2)CC1 (stereo unspecified) the screen gave 7.635%. With NC1CCN(CCC(=O)Nc2ccccc2)CC1 the screen gave 8.712%. With N#Cc1c(N)sc2c1CCS(=O)(=O)C2 the screen gave -50.95%.

Some entries from above, unchanged:

{"structure": "CN(CC(N)=O)Cc1cc(=O)c2cccc(Cl)c2[nH]1", "percent effect": -0.776}
{"structure": "Cc1nnnn1CC(=O)NCc1ccco1", "percent effect": 0.8983}
{"structure": "O=C(Cc1cccc(O)c1)NCCNc1ccccc1", "percent effect": 12.76}
{"structure": "CCN1C[C@H](NC(=O)c2cccn2C(C)C)[C@@H](OC)C1", "percent effect": 10.35}
{"structure": "CC(=O)N1CCCN(C(=O)C2CCN(C)C(=O)C2)CC1", "stereo": "stereo unspecified", "percent effect": 3.176}